Measured values published in PubChem BioAssay AID1439 (NMMLSC, 2008).
About 770 (0.35%) of roughly 220,000 compounds were called active. The shares of active, inactive and inconclusive entries below differ from those in the screen. No stated cut-off is given here; in the data, active means binding response below about 49% or above about 150%; inconclusive means no clear call, values can overlap the other calls; inactive means in between.

By UniProt entry, the sequences of proteins in these tests, tags left out.
UniProt P09471, whole entry, looked up: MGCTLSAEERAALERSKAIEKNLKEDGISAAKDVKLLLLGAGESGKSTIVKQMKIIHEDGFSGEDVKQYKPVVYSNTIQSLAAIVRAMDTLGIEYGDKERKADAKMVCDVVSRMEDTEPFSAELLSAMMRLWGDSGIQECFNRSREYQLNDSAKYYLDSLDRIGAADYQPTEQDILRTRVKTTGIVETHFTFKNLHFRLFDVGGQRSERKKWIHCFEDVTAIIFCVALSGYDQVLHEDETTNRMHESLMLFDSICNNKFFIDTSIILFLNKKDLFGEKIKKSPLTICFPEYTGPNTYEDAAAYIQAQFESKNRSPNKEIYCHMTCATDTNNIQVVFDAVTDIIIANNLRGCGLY

molecular target: Guanine nucleotide-binding protein G(o) subunit alpha (Homo sapiens) (UniProt P09471); assay: RGS7-Galphao binding modulators, primary screen, biochemical, multiplexed bead flow cytometry (AID 1439); details: at 10 µM, actives lie on both sides;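 further: fluorescent Galphao held in activated GDP-AlF4 state binding bead-coupled RGS7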

Structure (SMILES) | binding response (% of control)
COc1cc2c(cc1OC)C1(C)N(CC2)C(C(C)=O)=NN1c1ccc(Cl)cc1 (stereo unspecified) | inconclusive: -15.8%
CC(=O)N=c1c(C#N)cc2c(=O)n3cccc(C)c3nc2n1Cc1ccco1 | inconclusive: -85.9%
Cc1ccc(/C=[N+](\[O-])c2ccc(N(C)C)cc2)c2nsnc12 | inactive: 101%
CC(C)[C@H](NC(=O)C1CCCC1)c1nc2ccccc2[nH]1 | inconclusive: 97.4%
O=C(NNc1nc2ccccc2s1)Nc1ccc(F)cc1 | inconclusive: 92.1%
Fc1ccc(Oc2nc(-c3ccccn3)nc3ccccc23)cc1 | inconclusive: 191%
CN(C)CCN1C(=O)C(=O)/C(=C(/O)c2ccc3c(c2)OCCO3)C1c1ccccn1 (stereo unspecified) | inconclusive: 188%
COc1ccc2cc3c(N)nn(C(=O)c4ccc(F)cc4)c3nc2c1 | inconclusive: 101%
Cc1nnc(C)c2c(C)n(N)c(C)c12 | inconclusive: 114%
CC(C)NS(=O)(=O)c1ccc2c3c(cccc13)CC2 | inconclusive: 103%
COc1ccc(CNc2ncnc3c2[nH]c2ccccc23)cc1 | inconclusive: 94.5%
O=c1c2oc3nc4c(cc3c2ncn1CCCc1ccccc1)CCCC4 | inconclusive: 89.4%
CC(C)CC(=O)NC(=S)Nc1ccc(S(=O)(=O)Nc2nccs2)cc1 | inactive: 108%
Cc1nc(C(=O)NC2CCOCC2)sc1C1(C)CC(c2cccc([N+](=O)[O-])c2)=NO1 (stereo unspecified) | inconclusive: 121%
O=C(c1cc([N+](=O)[O-])ccc1N1CCOCC1)N1CCOCC1 | inactive: 97.9%
CCOC(=O)C(C(=O)OCC)N(C#N)c1nc(N(C)C)nc(N(C)C)n1 | inconclusive: 108%
CC1CCN(Cc2cc(=O)oc3cc4c(cc23)CCCC4)CC1 | inconclusive: 98.8%
CCOc1ccc(S(=O)(=O)N(CC)CC)cc1N | inconclusive: 92.7%
CCCSc1nc2c(c(=O)n(C)c(=O)n2C)n1C | inconclusive: 42.8%
Cc1cnc(NC(=O)C(C)N2CCN(C)CC2)s1 (stereo unspecified) | inconclusive: 105%
CCC[N+](C)(C)C(C)C(OC(C)=O)c1ccccc1 (stereo unspecified) | inconclusive: 158%
Cc1cccc(C(=O)NCC(=O)OCC(=O)N2CCCCC2)c1 | inconclusive: 96%
CC(C)CCN1CCN(Cc2cccc3cccnc23)CC1CCO (stereo unspecified) | inactive: 99.6%

10 entries from above, tab-delimited.
Structure (SMILES)	binding response (% of control)
Fc1ccc(Oc2nc(-c3ccccn3)nc3ccccc23)cc1	inconclusive: 191%
CN(C)CCN1C(=O)C(=O)/C(=C(/O)c2ccc3c(c2)OCCO3)C1c1ccccn1 (stereo unspecified)	inconclusive: 188%
COc1ccc2cc3c(N)nn(C(=O)c4ccc(F)cc4)c3nc2c1	inconclusive: 101%
Cc1nnc(C)c2c(C)n(N)c(C)c12	inconclusive: 114%
CC(C)NS(=O)(=O)c1ccc2c3c(cccc13)CC2	inconclusive: 103%
COc1ccc(CNc2ncnc3c2[nH]c2ccccc23)cc1	inconclusive: 94.5%
O=c1c2oc3nc4c(cc3c2ncn1CCCc1ccccc1)CCCC4	inconclusive: 89.4%
CC(C)CC(=O)NC(=S)Nc1ccc(S(=O)(=O)Nc2nccs2)cc1	inactive: 108%
Cc1nc(C(=O)NC2CCOCC2)sc1C1(C)CC(c2cccc([N+](=O)[O-])c2)=NO1 (stereo unspecified)	inconclusive: 121%
O=C(c1cc([N+](=O)[O-])ccc1N1CCOCC1)N1CCOCC1	inactive: 97.9%

Going on with the list.

Structure (SMILES) | binding response (% of control)
CC1(C)CC(NC(=O)C(=O)NCCc2ccccc2)CC(C)(C)N1 | inconclusive: 94.5%
NC(=O)NC1NC(=O)NC1=O (stereo unspecified) | inconclusive: 143%
CC1(C)CC(Nc2ccc(C(F)(F)F)cc2[N+](=O)[O-])CC(C)(C)N1 | inconclusive: 96.9%
O=C(NCc1ccc(OC(F)(F)F)cc1)C1CC(c2ccccc2C(F)(F)F)=NO1 (stereo unspecified) | inconclusive: 119%
CCCCN1C(=S)NC[C@@H]1Cc1ccc(O)cc1 | inconclusive: 111%
O=C(OCc1nc2ccccc2[n+]([O-])c1C(=O)c1ccccc1)c1cccnc1 | inconclusive: 104%
CCCCOc1ccc(-c2nc(SCC(N)=O)n[nH]2)cc1 | inactive: 99.7%
COc1ccc(CN(C(=O)c2cccc(OC)c2)C2CCS(=O)(=O)C2)cc1 (stereo unspecified) | inconclusive: 116%
CCOC(=O)COc1nc(-c2ccc(Cl)cc2)cc(-c2ccco2)c1C#N | inconclusive: 428%
CCCCCn1c(CN2CCN(Cc3ccccc3)CC2)nc2c1c(=O)n(C)c(=O)n2C | inactive: 95.9%
COCCNC(=O)/C(C#N)=C/c1c(F)cccc1Cl | inconclusive: 106%
CCOC(=O)C1(CCCc2ccccc2)CCN(C(=O)CN2C(=O)CSC2=O)CC1 | inactive: 99.6%
C/C(=N/NC(=O)CNC(=O)c1ccncc1)c1ccc(Cl)cc1 | inconclusive: 119%
O=C(O)/C=C/c1ccc(S(=O)(=O)NCc2cccnc2)cc1 | inconclusive: 101%
CSc1nncn1/N=C/c1ccc([N+](=O)[O-])cc1 | inconclusive: 122%
COc1cc(/C=C2\COC/C(=C\c3ccc(O)c(OC)c3)C2=O)ccc1O | inconclusive: 457%
C=C(C)C(=O)Nc1cccc(C2=NOC3(C2)C[C@@H](C(N)=O)N(C(=O)C(=C)C)C3)c1 (stereo partly specified) | inconclusive: 118%
CCOc1ccc2nc(SCC(=O)Nc3ccc(S(=O)(=O)N4CCCC4)cc3)c(C)cc2c1 | inconclusive: 96.8%
O=C(N/N=C/C=C/c1cccc([N+](=O)[O-])c1)c1ccncc1 | inconclusive: 87.9%
COC(=O)CCC(=O)OC1(C)C(=O)C=C2C=C(C3CC3)N(C3CCCC3)C=C2C1=O (stereo unspecified) | inconclusive: 114%
COc1ccc(OCCNS(=O)(=O)c2ccccc2)cc1 | inactive: 95.9%
Oc1ccc(N2CCN(Cc3ccc(OCCCN4CCCCC4)cc3)CC2)cc1 | inconclusive: 103%
COc1ccc(CCN2C(=NC(C)=O)SC3CS(=O)(=O)CC32)cc1OC (stereo unspecified) | inconclusive: 73.8%
